For data set [1] the following is noted: up to 2 months and above. From the text:
X-Ray tube with Cu target anode Divergence slits 1 0, Receiving slit 0.15 mm, Scatter slit 1 0 Power: 40 KV, 100 mA; Scanning speed: 2 degree/minute step: 0.02 degree; Wave length: 1.5406 A; Spray Dryer: PST01

The conditions of data set [2]: during drying at elevated temperature.

Consider one molecule from patent publication US20090306135A1, “STABLE AMORPHOUS FEXOFENADINE HYDROCHLORIDE” (priority 2008, published 2009).

Consider `CC(C)(C(=O)O)c1ccc(C(O)CCCN2CCC(C(O)(c3ccccc3)c3ccccc3)CC2)cc1.Cl` (racemic) [amorphous fexofenadine hydrochloride, (±)-4-[1 hydroxy-4-[4-(hydroxydiphenylmethyl)-1-piperidinyl]-butyl]-α,α-dimethyl benzeneacetic acid hydrochloride], for which the “content of 2-[4-(4-{4-[hydroxyl(diphenyl)methyl]piperidin-1-yl}butanoyl)phenyl]-2-methylpropanoic acid on storage” value in data set [1] is listed as “remains constant”. For the same molecule, the “stability against thermal degradation” value in data set [2] is reported as “stable against thermal degradation”.
